According to PubChem BioAssay AID1671190 (National Center for Advancing Translational Sciences (NCATS), 2021):
Hit rate of the full screen: of about 580,000 compounds, about 6,100 (1.1%) were called active. Inconclusive results, whose numbers are uncertain, are shown with a selection of clear calls. Calls come from the whole dose curve; as a rule, active = well fitted inhibition curve with a large enough effect; inconclusive = small, poorly fitted or top-dose-only effect, or another doubt; inactive = no such curve, though single readings can be large or run the other way. Potencies of inconclusive entries are doubtful fits and often do not repeat.

Sequences of proteins named here, by UniProt entry; tags and fusion partners are left off. A change or cut given only in a name is not applied to a line headed by its entry.
UniProt P18054: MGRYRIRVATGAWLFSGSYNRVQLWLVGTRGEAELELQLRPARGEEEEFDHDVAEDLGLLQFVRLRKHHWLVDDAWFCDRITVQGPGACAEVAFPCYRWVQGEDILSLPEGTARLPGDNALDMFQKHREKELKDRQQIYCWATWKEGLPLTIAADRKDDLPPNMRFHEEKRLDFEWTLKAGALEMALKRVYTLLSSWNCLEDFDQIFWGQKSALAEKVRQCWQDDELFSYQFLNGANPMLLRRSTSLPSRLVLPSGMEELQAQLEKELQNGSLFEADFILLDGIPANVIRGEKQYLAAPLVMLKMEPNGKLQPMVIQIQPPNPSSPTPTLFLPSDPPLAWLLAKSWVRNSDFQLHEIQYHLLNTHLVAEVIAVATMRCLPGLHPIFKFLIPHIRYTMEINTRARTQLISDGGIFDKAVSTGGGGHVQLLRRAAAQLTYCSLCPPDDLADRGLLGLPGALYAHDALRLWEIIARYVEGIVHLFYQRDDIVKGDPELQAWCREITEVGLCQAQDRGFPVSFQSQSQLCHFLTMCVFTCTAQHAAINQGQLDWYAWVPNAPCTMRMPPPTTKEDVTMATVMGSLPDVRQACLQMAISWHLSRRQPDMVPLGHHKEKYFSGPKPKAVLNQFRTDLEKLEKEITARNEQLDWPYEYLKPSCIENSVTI

Biological target: Polyunsaturated fatty acid lipoxygenase ALOX12 (Homo sapiens) (UniProt P18054)
Experiment: Primary qHTS assay for inhibitors of human arachidonate 12S-lipoxygenase (ALOX12): Round 2
Conditions: purified 12hLO, xylenol orange hydroperoxide absorbance; series mostly up to 108 µM
Outline: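 Purified human 12hLO at 150 nM in 25 mM Hepes, 0.01% Triton X-100, pH 7.0, preincubated 15 min at room temperature with compound. Reaction started with 40 uM arachidonic acid, 30 min at room temperature. Hydroperoxide measured by Fe-xylenol orange, 573/405 nm absorbance ratio.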
Potency is the fitted concentration of half-maximal effect.

SMILES | Potency
COc1ccc(N(C)S(=O)(=O)c2cccc(C(=O)Nc3ccc(OC)nc3)c2)cc1 | inactive
COCc1ccc(CNC(=O)/C=C/c2ccc(C)s2)cc1 | inconclusive: 56.2 µM [inhibitor, partial curve, poor fit]
O=C(O)c1ccc[nH]c1=S | inconclusive: 2.51 µM [inhibitor, partial curve, poor fit]
COc1ccc(-n2sc3ccccc3c2=O)cc1 | inconclusive: 3.55 µM [inhibitor, full curve, poor fit]
CCC(C)Sc1nc2c(cnn2-c2ccc(C)cc2)c(=O)[nH]1 (configuration not stated) | inconclusive: 112 µM [inhibitor, single point]
C#CCOCCOCCOCCNc1nc(N2CCN(C(=O)CCCCCCCCCCNC(=O)[C@H](CCCCN)n3cc(CCO)nn3)CC2)nc(N2CCN(C(=O)CCCCCCCCCCNC(=O)[C@H](CCCCN)n3cc(CCCC(=O)O)nn3)CC2)n1 | inconclusive: 44.7 µM [inhibitor, partial curve, poor fit]
COc1ccc(Br)cc1C(=O)Nc1cccc(-c2nnc(-c3ccco3)o2)c1 | inconclusive: 100 µM [inhibitor, partial curve, poor fit]
C=CCNC(=O)N1CCN(Cc2ccc(Cl)cc2)CC1 | inconclusive: 89.1 µM [inhibitor, partial curve, poor fit]
COc1cccc(CC(=O)N2CCCCCCNC(=O)[C@H]3CCCC[C@H]32)c1 | inactive
COc1ccc(C(=O)NCC(=O)OCC(=O)Nc2ncc(Cl)cc2Cl)cc1[N+](=O)[O-] | inconclusive: 31.6 µM [inhibitor, partial curve, poor fit]
Cc1ccnc(NC(=O)c2ccccc2[N+](=O)[O-])c1 | inconclusive: 17.8 µM [inhibitor, partial curve, poor fit]
COc1cc(C(=O)NC(=S)Nc2ccccc2N2CCCC2)cc(OC)c1OC | inconclusive: 50.1 µM [inhibitor, partial curve, poor fit]
CCOc1ccc(Nc2nc3ccccc3nc2NS(=O)(=O)c2ccc(F)cc2)cc1 | inconclusive: 39.8 µM [inhibitor, partial curve, poor fit]
O=C(O)CC(c1ccc(F)cc1)c1ccc(Cl)cc1 (configuration not stated) | inconclusive: 44.7 µM [inhibitor, partial curve, poor fit]
CCOC(=O)C1CCCN(c2c(NCCc3ccccc3)c(=O)c2=O)C1 (configuration not stated) | inactive
Cc1ccc(C)c(NC(=O)N2CCN(c3nnc(C)c4c(C)n(-c5ccccc5)nc34)CC2)c1 | inactive
Cc1ccc(-c2csc(Nc3ccccc3C)n2)cc1 | inconclusive: 50.1 µM [inhibitor, partial curve, poor fit]

2 records picked at random from the list so far:
SMILES | Potency
COc1ccc(Br)cc1C(=O)Nc1cccc(-c2nnc(-c3ccco3)o2)c1 | inconclusive: 100 µM [inhibitor, partial curve, poor fit]
COc1cccc(CC(=O)N2CCCCCCNC(=O)[C@H]3CCCC[C@H]32)c1 | inactive
